From patent US8440240B2, “Method for treating ocular demodex” (priority 2005, dated 2013)
Some of these results come from one statement about several compounds together.

System: Demodex folliculorum
Assay: In vitro killing: survival time of live adult demodex from epilated lashes in test solutions
Details: 4% solution; 150 = still alive (no effect); listed as pilocarpine
Protocol: TT shampoo was from Kato Sales, Inc. (Altamonte Springs, Fla., USA). TTO was diluted with mineral oil into different concentrations.
Under the microscope, if the epilated lash contained live demodex, different solutions were added to the coverslip edge. The movement of demodex body and legs was continuously observed for 150 minutes. The survival time (ST) (Table 2 below) was counted from the time when the solution was added to the time when the movement ceased (See FIG. 1) The average ST tested for a given solution in a number of mites was used to compare the in vitro killing effect. If demodex remained alive at the end of 150 minutes, this value was denoted as no effect. Because demodex in an earlier life stage was more vulnerable, we only tested adult demodex that had 4 pairs of well developed legs and stumpy body. Because demodex buried in cylindrical dandruff (CD) might preclude the killing effect, we only tested demodex of which the whole body was fully exposed to the test solution.

## CC[C@@H]1C(=O)OC[C@@H]1Cc1cncn1C [Pilo, pilocarpine, reference compound]
  ST: survival time of demodex: more than 150 min
